Laboratory results taken from publication PMC8384837.
Substitutions are numbered along the chain they refer to. Some of the results follow. For part of these data: At the low end of the ranking the order means little. For part of these data: Construct or isoform of the protein are uncertain.

What was measured:
Settings in all cases: yeast three-hybrid, YBZ-1, SC-Leu-His + 0.5 mM 3-AT, 4 days
[1] = target: T1, PUM1 PUF domain R1-QFR R2-VFQ R7-NPG S863Q + R864F + Q867R + N899V + Y900F + S1079N + N1080P + E1083G (UniProt Q14671)
T1 sequence: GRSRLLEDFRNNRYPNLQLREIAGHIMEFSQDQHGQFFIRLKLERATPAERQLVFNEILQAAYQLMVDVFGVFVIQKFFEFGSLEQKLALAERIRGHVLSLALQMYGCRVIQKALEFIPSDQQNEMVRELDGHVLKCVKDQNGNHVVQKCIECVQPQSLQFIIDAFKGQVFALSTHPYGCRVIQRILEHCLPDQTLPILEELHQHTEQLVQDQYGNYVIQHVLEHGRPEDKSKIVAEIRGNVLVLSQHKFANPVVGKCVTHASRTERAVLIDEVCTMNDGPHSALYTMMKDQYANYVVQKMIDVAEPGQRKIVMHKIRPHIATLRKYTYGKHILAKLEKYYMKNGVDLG

[2] = target: T2, PUM1 PUF domain R2-VFQ R3-THE R4-TFR N899V + Y900F + C935T + R936H + Q939E + N971T + H972F + Q975R (UniProt Q14671)
T2 sequence: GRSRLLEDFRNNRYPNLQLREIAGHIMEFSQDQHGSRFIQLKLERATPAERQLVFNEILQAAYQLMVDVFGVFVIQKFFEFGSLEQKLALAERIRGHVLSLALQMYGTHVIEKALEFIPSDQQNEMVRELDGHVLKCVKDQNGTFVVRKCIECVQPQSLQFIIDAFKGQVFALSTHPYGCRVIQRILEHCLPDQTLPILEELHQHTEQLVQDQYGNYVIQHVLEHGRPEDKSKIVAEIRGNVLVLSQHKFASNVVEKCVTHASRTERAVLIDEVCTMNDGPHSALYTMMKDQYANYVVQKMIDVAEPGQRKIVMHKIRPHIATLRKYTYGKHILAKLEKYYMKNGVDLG

[3] = target: T3, PUM1 PUF domain R3-THE R4-TFR C935T + R936H + Q939E + N971T + H972F + Q975R (UniProt Q14671)
T3 sequence: T2 sequence with V72N, F73Y

[4] = target: T4, PUM1 PUF domain R5-PHQ R6-SWD C1007P + R1008H + N1043S + Y1044W + Q1047D (UniProt Q14671)
T4 sequence: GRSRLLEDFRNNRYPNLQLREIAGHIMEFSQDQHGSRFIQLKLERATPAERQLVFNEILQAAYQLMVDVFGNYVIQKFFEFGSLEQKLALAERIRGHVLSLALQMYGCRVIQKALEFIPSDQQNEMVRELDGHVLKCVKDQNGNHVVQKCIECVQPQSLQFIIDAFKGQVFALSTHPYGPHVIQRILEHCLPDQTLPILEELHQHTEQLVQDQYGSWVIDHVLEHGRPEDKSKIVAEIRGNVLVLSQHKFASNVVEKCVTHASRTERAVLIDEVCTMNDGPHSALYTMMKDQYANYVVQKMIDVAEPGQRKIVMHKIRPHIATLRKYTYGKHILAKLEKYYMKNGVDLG

[5] = target: T5, PUM1 PUF domain R6-SWD R7-NPG N1043S + Y1044W + Q1047D + S1079N + N1080P + E1083G (Homo sapiens) (UniProt Q14671)
T5 sequence: T4 sequence with P180C, H181R, S252N, N253P, E256G

[6] = target: T6, PUM1 PUF domain R3-THE R4-TFR R7-NPG C935T + R936H + Q939E + N971T + H972F + Q975R + S1079N + N1080P + E1083G (UniProt Q14671)
T6 sequence: T2 sequence with V72N, F73Y, S252N, N253P, E256G

[7] = target: T7, PUM1 PUF domain R3-THE R4-TFR R7-NPG C935T + R936H + Q939E + N971T + H972F + Q975R + S1079N + N1080P + E1083G (Homo sapiens) (UniProt Q14671)
T7 sequence: T2 sequence with V72N, F73Y, S252N, N253P, E256G

Sequence	binding signal (log2 enrichment (interaction score)) [1]	binding signal (log2 enrichment (interaction score)) [2]	binding signal (log2 enrichment (interaction score)) [3]	binding signal (log2 enrichment (interaction score)) [4]	binding signal (log2 enrichment (interaction score)) [5]	binding signal (log2 enrichment (interaction score)) [6]	binding signal (log2 enrichment (interaction score)) [7]
GGCUAGAACUAGUGGAUCCCCCGGCGCCCGGCGGCUCGAGCCCGGGUAAGUAUCUAUAGUCUGCAUGCCGCCGGGCGCCAUGCCUGCAGGUCGACUCUAGAAAACAUG	< -6.06	-5.12	-7.26	< -8.22	-0.44	–	–
GGCUAGAACUAGUGGAUCCCCCGGCGCCCGGCGGCUCGAGCCCGGGUAAGAUUCCGAAGUCUGCAUGCCGCCGGGCGCCAUGCCUGCAGGUCGACUCUAGAAAACAUG	-2.59	-4.43	< -7.29	–	-1.7	–	–
GGCUAGAACUAGUGGAUCCCCCGGCGCCCGGCGGCUCGAGCCCGGGUAAGUGCGCACAGUCUGCAUGCCGCCGGGCGCCAUGCCUGCAGGUCGACUCUAGAAAACAUG	-6.13	-5.72	-6.89	< -8.48	–	–	–
GGCUAGAACUAGUGGAUCCCCCGGCGCCCGGCGGCUCGAGCCCGGGUAAGUGGAAACUGUCUGCAUGCCGCCGGGCGCCAUGCCUGCAGGUCGACUCUAGAAAACAUG	-6.29	-5.65	-6.55	-7.64	–	–	–
GGCUAGAACUAGUGGAUCCCCCGGCGCCCGGCGGCUCGAGCCCGGGUAAGUCGAGGUAGUCUGCAUGCCGCCGGGCGCCAUGCCUGCAGGUCGACUCUAGAAAACAUG	-6.9	-5.72	< -6.27	–	-1.15	–	–
GGCUAGAACUAGUGGAUCCCCCGGCGCCCGGCGGCUCGAGCCCGGGUAAGUUUAAGUUGUCUGCAUGCCGCCGGGCGCCAUGCCUGCAGGUCGACUCUAGAAAACAUG	-6.4	-4.64	< -7.45	< -8.24	–	–	–
GGCUAGAACUAGUGGAUCCCCCGGCGCCCGGCGGCUCGAGCCCGGGUAAGGCUAAGUAGUCUGCAUGCCGCCGGGCGCCAUGCCUGCAGGUCGACUCUAGAAAACAUG	-5.38	-5.28	-6.55	< -6.87	–	–	–
GGCUAGAACUAGUGGAUCCCCCGGCGCCCGGCGGCUCGAGCCCGGGUAAGUUUAAGUAGUCUGCAUGCCGCCGGGCGCCAUGCCUGCAGGUCGACUCUAGAAAACAUG	-5.59	-5.31	-6.64	-8.65	-1.28	–	–
GGCUAGAACUAGUGGAUCCCCCGGCGCCCGGCGGCUCGAGCCCGGGUAAGACGAGAUAGUCUGCAUGCCGCCGGGCGCCAUGCCUGCAGGUCGACUCUAGAAAACAUG	-6.26	-4.7	< -6.84	< -7.14	–	–	–
GGCUAGAACUAGUGGAUCCCCCGGCGCCCGGCGGCUCGAGCCCGGGUAAGUGGAAAUCGUCUGCAUGCCGCCGGGCGCCAUGCCUGCAGGUCGACUCUAGAAAACAUG	-5.3	-5.46	-6.83	-6.78	-1	–	–
GGCUAGAACUAGUGGAUCCCCCGGCGCCCGGCGGCUCGAGCCCGGGUAAGUGUAACUCGUCUGCAUGCCGCCGGGCGCCAUGCCUGCAGGUCGACUCUAGAAAACAUG	-5.71	-3.93	< -6.86	< -8.39	–	–	–
GGCUAGAACUAGUGGAUCCCCCGGCGCCCGGCGGCUCGAGCCCGGGUAAGUUUAGGAAGUCUGCAUGCCGCCGGGCGCCAUGCCUGCAGGUCGACUCUAGAAAACAUG	-5.71	-5.97	-6.43	–	-1.86	–	–
GGCUAGAACUAGUGGAUCCCCCGGCGCCCGGCGGCUCGAGCCCGGGUAAGUAUAAAUAGUCUGCAUGCCGCCGGGCGCCAUGCCUGCAGGUCGACUCUAGAAAACAUG	-4.28	-4.78	-5.87	-7.6	-0.74	–	–
GGCUAGAACUAGUGGAUCCCCCGGCGCCCGGCGGCUCGAGCCCGGGUAAGUCAAAAUCGUCUGCAUGCCGCCGGGCGCCAUGCCUGCAGGUCGACUCUAGAAAACAUG	-6.77	-5.86	< -6.38	-7.15	–	–	–
GGCUAGAACUAGUGGAUCCCCCGGCGCCCGGCGGCUCGAGCCCGGGUAAGAUUAAGCAGUCUGCAUGCCGCCGGGCGCCAUGCCUGCAGGUCGACUCUAGAAAACAUG	< -6.5	-5.83	< -6.89	< -7.67	–	–	–
GGCUAGAACUAGUGGAUCCCCCGGCGCCCGGCGGCUCGAGCCCGGGUAAGUUGAAGCAGUCUGCAUGCCGCCGGGCGCCAUGCCUGCAGGUCGACUCUAGAAAACAUG	-6	-5.4	-6.94	-6.95	-0.42	–	–
GGCUAGAACUAGUGGAUCCCCCGGCGCCCGGCGGCUCGAGCCCGGGUAAGAUGAACAAGUCUGCAUGCCGCCGGGCGCCAUGCCUGCAGGUCGACUCUAGAAAACAUG	< -5.55	-4.59	–	< -7.98	–	–	–
GGCUAGAACUAGUGGAUCCCCCGGCGCCCGGCGGCUCGAGCCCGGGUAAGUGGGAACAGUCUGCAUGCCGCCGGGCGCCAUGCCUGCAGGUCGACUCUAGAAAACAUG	-5.74	-6.12	–	-8.02	–	–	–
GGCUAGAACUAGUGGAUCCCCCGGCGCCCGGCGGCUCGAGCCCGGGUAAGGUGAUUAAGUCUGCAUGCCGCCGGGCGCCAUGCCUGCAGGUCGACUCUAGAAAACAUG	-6.6	-5.55	–	–	-0.93	-2.03	–
GGCUAGAACUAGUGGAUCCCCCGGCGCCCGGCGGCUCGAGCCCGGGUAAGUACAGACAGUCUGCAUGCCGCCGGGCGCCAUGCCUGCAGGUCGACUCUAGAAAACAUG	-6.31	-4.94	–	–	–	–	-0.82
GGCUAGAACUAGUGGAUCCCCCGGCGCCCGGCGGCUCGAGCCCGGGUAAGUGUAACUGGUCUGCAUGCCGCCGGGCGCCAUGCCUGCAGGUCGACUCUAGAAAACAUG	-3.41	-5.53	–	-7.16	–	-2.92	–
GGCUAGAACUAGUGGAUCCCCCGGCGCCCGGCGGCUCGAGCCCGGGUAAGUGAACCAAGUCUGCAUGCCGCCGGGCGCCAUGCCUGCAGGUCGACUCUAGAAAACAUG	< -5.6	-5.4	–	-7.38	–	–	–
GGCUAGAACUAGUGGAUCCCCCGGCGCCCGGCGGCUCGAGCCCGGGUAAGUUGAACAAGUCUGCAUGCCGCCGGGCGCCAUGCCUGCAGGUCGACUCUAGAAAACAUG	-7.06	-6.86	–	-8.09	–	–	-1.99

Complete entries, quoted from the list. Order of values: binding signal (log2 enrichment (interaction score)) [1]	binding signal (log2 enrichment (interaction score)) [2]	binding signal (log2 enrichment (interaction score)) [3]	binding signal (log2 enrichment (interaction score)) [4]	binding signal (log2 enrichment (interaction score)) [5]	binding signal (log2 enrichment (interaction score)) [6]	binding signal (log2 enrichment (interaction score)) [7]
GGCUAGAACUAGUGGAUCCCCCGGCGCCCGGCGGCUCGAGCCCGGGUAAGUUUAGGAAGUCUGCAUGCCGCCGGGCGCCAUGCCUGCAGGUCGACUCUAGAAAACAUG reads -5.71	-5.97	-6.43	–	-1.86	–	–
GGCUAGAACUAGUGGAUCCCCCGGCGCCCGGCGGCUCGAGCCCGGGUAAGUGAACCAAGUCUGCAUGCCGCCGGGCGCCAUGCCUGCAGGUCGACUCUAGAAAACAUG reads < -5.6	-5.4	–	-7.38	–	–	–
